Reference: PMC9036047
No constants are given. Whether binding was seen depends on the method and setting. Binding seen in cells or lysates may run through a third protein. Some results given as binding are weak or reduced against the parent protein; the word gives no strength.

Chains of the proteins cited; added tags and fusions are not shown. Residues count along the entry.
UniProt P37173, residues 23-567: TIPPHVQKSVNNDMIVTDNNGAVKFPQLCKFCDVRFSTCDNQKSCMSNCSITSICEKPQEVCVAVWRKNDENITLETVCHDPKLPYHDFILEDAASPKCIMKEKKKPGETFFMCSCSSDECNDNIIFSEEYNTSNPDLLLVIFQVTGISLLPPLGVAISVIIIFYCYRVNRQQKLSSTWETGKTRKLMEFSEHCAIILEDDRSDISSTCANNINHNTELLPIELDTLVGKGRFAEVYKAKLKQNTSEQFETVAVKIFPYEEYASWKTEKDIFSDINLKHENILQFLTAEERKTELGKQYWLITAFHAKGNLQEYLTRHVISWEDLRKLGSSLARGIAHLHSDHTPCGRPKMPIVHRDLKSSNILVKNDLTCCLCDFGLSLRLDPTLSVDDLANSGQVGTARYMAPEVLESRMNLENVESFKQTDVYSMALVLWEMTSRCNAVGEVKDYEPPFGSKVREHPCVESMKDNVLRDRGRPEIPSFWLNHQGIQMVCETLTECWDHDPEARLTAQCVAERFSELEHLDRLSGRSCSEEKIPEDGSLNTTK
UniProt P08908: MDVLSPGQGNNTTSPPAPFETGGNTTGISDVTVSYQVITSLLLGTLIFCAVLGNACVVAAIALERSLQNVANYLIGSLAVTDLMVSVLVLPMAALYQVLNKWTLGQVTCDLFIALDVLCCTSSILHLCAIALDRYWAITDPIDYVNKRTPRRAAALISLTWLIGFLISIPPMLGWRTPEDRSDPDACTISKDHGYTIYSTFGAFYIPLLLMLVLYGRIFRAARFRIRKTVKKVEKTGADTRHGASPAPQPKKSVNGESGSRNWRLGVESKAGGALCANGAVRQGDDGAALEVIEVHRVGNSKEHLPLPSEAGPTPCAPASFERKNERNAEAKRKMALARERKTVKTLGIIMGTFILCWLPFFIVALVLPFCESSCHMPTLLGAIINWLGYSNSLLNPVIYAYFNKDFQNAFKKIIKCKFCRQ
UniProt P19474: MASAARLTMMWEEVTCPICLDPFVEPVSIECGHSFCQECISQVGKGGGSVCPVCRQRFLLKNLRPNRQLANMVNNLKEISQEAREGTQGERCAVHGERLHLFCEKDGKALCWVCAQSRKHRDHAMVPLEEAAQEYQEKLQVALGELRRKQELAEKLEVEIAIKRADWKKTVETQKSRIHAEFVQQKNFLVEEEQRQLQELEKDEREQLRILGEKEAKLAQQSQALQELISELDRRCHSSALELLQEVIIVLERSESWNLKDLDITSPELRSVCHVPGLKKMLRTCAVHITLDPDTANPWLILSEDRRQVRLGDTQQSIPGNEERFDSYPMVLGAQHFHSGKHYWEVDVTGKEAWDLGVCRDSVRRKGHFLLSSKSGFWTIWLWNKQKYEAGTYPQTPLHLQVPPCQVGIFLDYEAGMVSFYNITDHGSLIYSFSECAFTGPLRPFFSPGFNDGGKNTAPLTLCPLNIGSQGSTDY
UniProt P51665: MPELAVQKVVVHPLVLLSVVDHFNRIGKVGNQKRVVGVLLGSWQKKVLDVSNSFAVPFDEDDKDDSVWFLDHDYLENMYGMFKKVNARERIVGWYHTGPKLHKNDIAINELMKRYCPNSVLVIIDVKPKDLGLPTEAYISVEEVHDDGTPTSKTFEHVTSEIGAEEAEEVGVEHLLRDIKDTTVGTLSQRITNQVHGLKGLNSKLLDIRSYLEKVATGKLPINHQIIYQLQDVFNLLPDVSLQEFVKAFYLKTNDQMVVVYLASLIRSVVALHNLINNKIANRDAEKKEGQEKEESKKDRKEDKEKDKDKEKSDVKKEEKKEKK

Legend:
TβRII = TβRII (UniProt P37173); assay: co-IP; 1 x 10^7 cells in IP lysis buffer (20 mM HEPES, 150 mM NaCl, 50 mM KCl, 2 mM MgCl2, 5 mM EDTA pH 8.0, 100 mM NaF, 1% NP40, 10% glycerol); protein A/G magnetic beads with primary antibody or control IgG overnight at 4 °C; western blot
[1] = molecular target: 5-hydroxytryptamine receptor 1A (UniProt P08908); assay: as above

binding (TβRII)	binding [1]	Substance
binds	binds	TRIM21 (from UniProt P19474 1-475) (enzyme)
–	binds	PSMD7 (from UniProt P51665 1-324)
